The assay concerns nude mice, HT29 intrarenal xenograft, tumor weight T/C. Nature of the assay: NCI In Vivo Anticancer Drug Screen. Data for tumor model HT29;CX-1 Human Adenocarcinoma (MER+) (intrarenal inoculation) in NU/NU Swiss (nude) mice. The settings on record: T/C endpoint: mean tumor weight change, higher T/C = larger tumour. The procedure, abridged: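 Compounds were given to mice carrying transplantable tumors; a vehicle-dosed group served as control. The endpoint measured in each group was compared as a T/C quotient.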

Where [1] appears, read: dose: 1200.0 mg/kg/injection, schedule: Q04DX004 (sc), vehicle: Klucel (hydroxypropylcellulose) (HPC).
Where [2] appears, read: dose: 150.0 mg/kg/injection, schedule: Q04DX004 (sc), vehicle: Klucel (hydroxypropylcellulose) (HPC).

The list is a part of this screen's results and no random one: it gathers tests that were run many times, whatever their T/C, doses with no T/C, and many T/C values between a quarter and a half above the control. Other doses and runs of a compound stand elsewhere. T/C is the treated group as % of the vehicle group. Schedules are NCI's codes, read here as Q, the interval in days (D) or hours (H), X, the number of doses. Some T/C values are followed by the survivors on the day toxicity was checked, most often the fifth; where none is given, no animal had died by that day. Some T/C values are negative: the treated tumours shrank. Some entries were tested several times; their values stand side by side, smallest first. Some doses have a count of surviving animals in place of a T/C: the source holds a T/C of zero for them, seemingly a mark for toxic or unscored doses. Counts of survivors are from the toxicity check (mostly the fifth day) where no day follows; animals may have died later. Starred links: 1 amine or outer side, 2 acyl side, 3 side chain; linkers in the order of their positions; H or OH if unused. Positions of bridges follow the written chain, without caps; N, C: chain ends. Non-standard residues stand in square brackets, D forms with d. Residues, ends and D or L forms follow the SMILES beside them. Chains are numbered I, II in the order given. Actinocin(1to9) = Cc1c2oc3c(C)ccc(C(=O)[*:2])c3nc-2c(C(=O)[*:1])c(N)c1=O; NMeV = CN[CH](C(=O)O)C(C)C; Aze = O=C(O)[CH]1CCN1; Sar = CNCC(=O)O

`CCC1OCC(C(Cl)CCl)O1` (stereo unspecified): the T/C by setting is: (dose: 300.0 mg/kg/injection, schedule: Q04DX004 (sc), vehicle: Klucel (hydroxypropylcellulose) (HPC), evaluated on day 15) 47, 64, 83, 113, 114, 210 % of control; (dose: 600.0 mg/kg/injection, schedule: Q04DX004 (sc), vehicle: Klucel (hydroxypropylcellulose) (HPC), evaluated on day 15) 7, 18, 26, 27, 42 [5 of 6 alive on day 15], 61, 135 % of control; (dose: 1200.0 mg/kg/injection, schedule: Q04DX004 (sc), vehicle: Klucel (hydroxypropylcellulose) (HPC), evaluated on day 15) -71 [5 of 6 alive on day 15], -68, 28 [5 of 6 alive on day 15], 32 [5 of 6 alive on day 15], 80 % of control; (dose: 2400.0 mg/kg/injection, schedule: Q04DX004 (sc), vehicle: Klucel (hydroxypropylcellulose) (HPC), evaluated on day 15) -94 [4 of 6 alive on day 15], 10, 21 % of control [4 of 6 alive on day 15]. In addition, the survivor count under setting [1] is 0 of 6 on day 15 and 3 of 6 on day 15; the survivor count (dose: 1200.0 mg/kg/injection, schedule: Q04DX004 (sc), vehicle: other) is given as 0 of 6 on day 15; the survivor count (dose: 2400.0 mg/kg/injection, schedule: Q04DX004 (sc), vehicle: Klucel (hydroxypropylcellulose) (HPC)) is given as 0 of 6 on day 15, 2 of 6 on day 15, 3 of 6 on day 15; the survivor count (dose: 2400.0 mg/kg/injection, schedule: Q04DX004 (sc), vehicle: other) is 0 of 6 on day 15; the survivor count (dose: 4800.0 mg/kg/injection, schedule: Q04DX004 (sc), vehicle: Klucel (hydroxypropylcellulose) (HPC)) is 0 of 6 on day 15.
As to `COP12(OCCO1)SC(C(F)(F)F)=C(C(F)(F)F)S2`, the survivor count (dose: 1000.0 mg/kg/injection, schedule: Q04DX004 (sc), vehicle: saline with Tween-80) is 3 of 6 on day 15.
Take `COC1CC(C)C(OC)c2cc(O)cc(c2O)NC(=O)/C(C)=C/C=C\C(C)C(OC(N)=O)/C(C)=C\C(C)C1OC` (stereo unspecified): the survivor count reads like this: (dose: 100.0 mg/kg/injection, schedule: Q04DX004 (sc), vehicle: saline + alcohol) 1 of 6 on day 15; (dose: 200.0 mg/kg/injection, schedule: Q04DX004 (sc), vehicle: saline + alcohol) 1 of 6 on day 15; (dose: 400.0 mg/kg/injection, schedule: Q04DX004 (sc), vehicle: saline + alcohol) 0 of 6 on day 15.
For the compound `OC(C1CO1)C(O)C1CO1` (stereo unspecified), the survivor count is 0 of 3 on day 11 and 1 of 3 on day 11 (dose: 4.0 mg/kg/injection, schedule: Q01DX010 (sc), vehicle: saline); 0 of 3 on day 11 (dose: 8.0 mg/kg/injection, schedule: Q01DX010 (sc), vehicle: saline); 0 of 3 on day 11 (dose: 16.0 mg/kg/injection, schedule: Q01DX010 (sc), vehicle: saline).
In the case of `Cc1c2oc3c(C)ccc(C(=O)NC4C(=O)NC(C(C)C)C(=O)N5CCCC5C(=O)N(C)CC(=O)N(C)C(C(C)C)C(=O)OC4C)c3nc-2c(C(=O)NC2C(=O)NC(C(C)C)C(=O)N3CCC3C(=O)N(C)CC(=O)N(C)C(C(C)C)C(=O)OC2C)c(N)c1=O` (stereo unspecified) (I: TV[Aze][Sar][NMeV] / II: TVP[Sar][NMeV]; ester I:1-I:C, II:1-II:C; linker I:N-II:N via Actinocin(1to9); configuration not given here), the survivor count reads like this: (dose: 2.0 mg/kg/injection, schedule: Q04DX004 (sc), vehicle: saline + alcohol) 1 of 6 on day 15; (dose: 4.0 mg/kg/injection, schedule: Q04DX004 (sc), vehicle: saline + alcohol) 0 of 6 on day 15.
On to `CN(C)c1ccc2c(N(C)C)cc(N(C)C)nc2c1`, for which the survivor count under setting [2] is reported as 0 of 6 on day 15; the survivor count (dose: 300.0 mg/kg/injection, schedule: Q04DX004 (sc), vehicle: Klucel (hydroxypropylcellulose) (HPC)) was 0 of 6 on day 15; the survivor count (dose: 600.0 mg/kg/injection, schedule: Q04DX004 (sc), vehicle: Klucel (hydroxypropylcellulose) (HPC)) is on record as 0 of 6 on day 15.
Regarding `Nc1ccc(C(OC(=O)c2cc3ccccc3c(Cc3c(O)c(C(=O)OC(c4ccc(N)cc4)(c4ccc(N)cc4)c4ccc(N)cc4)cc4ccccc34)c2O)(c2ccc(N)cc2)c2ccc(N)cc2)cc1`, the T/C (dose: 18.0 mg/kg/injection, schedule: Q04DX004 (sc), vehicle: saline with Tween-80, evaluated on day 15) was 135 % of control. The survivor count (dose: 600.0 mg/kg/injection, schedule: Q04DX004 (sc), vehicle: saline with Tween-80) is reported as 1 of 6 on day 15.
On to `CCCCCCCCCCCCCC#CC(=O)O`, for which the T/C is, setting by setting: (dose: 75.0 mg/kg/injection, schedule: Q04DX004 (sc), vehicle: saline with Tween-80, evaluated on day 15) 134 % of control; (dose: 150.0 mg/kg/injection, schedule: Q04DX004 (sc), vehicle: saline with Tween-80, evaluated on day 15) 125 % of control.
For `Cc1c(N)nc(C(CC(N)=O)NCC(N)C(N)=O)nc1C(=O)NC(C(=O)NC(C)C(O)CC(=O)NC(C(=O)NC(OC1OC(C)C(N)C(O)C1O)C(O)c1nc(-c2nc(C(=O)NCCCC(N)CC(=O)NCCCNCCCCN)cs2)cs1)C(C)O)C(OC1OC(CO)C(O)C(O)C1OC1OC(CO)C(O)C(OC(N)=O)C1O)c1cnc[nH]1` (stereo unspecified), the survivor count runs as follows: (dose: 32.0 mg/kg/injection, schedule: Q04DX004 (sc), vehicle: saline) 0 of 3 on day 15; (dose: 64.0 mg/kg/injection, schedule: Q04DX004 (sc), vehicle: saline) 0 of 3 on day 15.
As to `Oc1ccccc1C=NCCC[N-]CCCN=Cc1ccccc1O.[Co]`, the survivor count (dose: 200.0 mg/kg/injection, schedule: Q01DX010 (sc), vehicle: suspension in saline) is 0 of 3 on day 20.
On to `COCC(O)Cn1ccnc1[N+](=O)[O-]` (stereo unspecified), for which the T/C (dose: 2400.0 mg/kg/injection, schedule: Q04DX004 (sc), vehicle: suspension in saline, evaluated on day 15) is 138 % of control [4 of 6 alive on day 15].
Turning to `[CH3][Sn]([CH3])([Cl])[S]CCN`, the survivor count (dose: 150.0 mg/kg/injection, schedule: Q04DX004 (sc), vehicle: suspension in saline) was 0 of 6 on day 15.
`NC1=NC(=O)N2CC12` (stereo unspecified): the survivor count (dose: 400.0 mg/kg/injection, schedule: Q04DX004 (sc), vehicle: saline) is reported as 0 of 6 on day 15.
Regarding `CCCCCC[C@H]([C@H](C)O)n1cnc2c(N)ncnc21`, under “dose: 400.0 mg/kg/injection, schedule: Q01DX010 (sc), vehicle: saline”, the survivor count is 1 of 3 on day 11.
As to `C=CCOCC1CO1` (stereo unspecified), the survivor count (dose: 600.0 mg/kg/injection, schedule: Q04DX004 (sc), vehicle: saline) is 1 of 6 on day 15.
Consider `O=c1[nH]c(=O)n(C2CC(O)C(CO)O2)cc1C(F)(F)F` (stereo unspecified), for which the survivor count (dose: 800.0 mg/kg/injection, schedule: Q01DX010 (sc), vehicle: saline) is reported as 0 of 3 on day 20.
As to `C1CN2CCC1CC2`, the survivor count is reported as 0 of 6 on day 15 (dose: 37.5 mg/kg/injection, schedule: Q04DX004 (sc), vehicle: saline with Tween-80) and 0 of 6 on day 15 (dose: 75.0 mg/kg/injection, schedule: Q04DX004 (sc), vehicle: saline with Tween-80).
For `COc1c(C=O)c2c(c(OC)c1OC)-c1ccc(OC)c(=O)cc1[C@@H](NC(C)=O)CC2`, the survivor count was 3 of 5 on day 15 (dose: 75.0 mg/kg/injection, schedule: Q04DX004 (sc), vehicle: Klucel (hydroxypropylcellulose) (HPC)) and 0 of 6 on day 15 under setting [2].
As to `Cc1ccc(S(=O)(=O)N/N=C/C(Br)=C(/Br)C(=O)O)cc1`, the survivor count under setting [1] is listed as 0 of 6 on day 15.
Consider `CC1OC(=O)C(C(C)C)NC(=O)C(C(C)C)OC(=O)C(C(C)C)NC(=O)C(C)OC(=O)C(C(C)C)NC(=O)C(C(C)C)OC(=O)C(C(C)C)NC(=O)C(C)OC(=O)C(C(C)C)NC(=O)C(C(C)C)OC(=O)C(C(C)C)NC1=O` (stereo unspecified), for which the T/C (dose: 10.0 mg/kg/injection, schedule: Q01DX010 (sc), vehicle: saline with Tween-80, evaluated on day 11) is 126 % of control and the T/C (dose: 20.0 mg/kg/injection, schedule: Q01DX010 (sc), vehicle: saline with Tween-80, evaluated on day 11) was 129 % of control. Also, the survivor count (dose: 80.0 mg/kg/injection, schedule: Q01DX010 (sc), vehicle: saline with Tween-80) is 1 of 2 on day 11.
For the compound `NCCCC(N)(C(=O)O)C(F)F` (stereo unspecified), the T/C (dose: 2400.0 mg/kg/injection, schedule: Q04DX004 (sc), vehicle: distilled water + alcohol, evaluated on day 15) was 136 % of control [5 of 6 alive on day 15].
`Nc1nc(=O)n(C2OC(CO)C(O)C2O)cc1F` (stereo unspecified): the survivor count (dose: 2400.0 mg/kg/injection, schedule: Q04DX004 (sc), vehicle: saline) is given as 0 of 5 on day 15.
Take `[N-]=[N+]=C1N=CN=C1c1ncn[nH]1`: the survivor count is, setting by setting: (dose: 50.0 mg/kg/injection, schedule: Q01DX010 (sc), vehicle: Klucel (hydroxypropylcellulose) (HPC)) 1 of 3 on day 11; (dose: 100.0 mg/kg/injection, schedule: Q01DX010 (sc), vehicle: Klucel (hydroxypropylcellulose) (HPC)) 0 of 3 on day 11.

The record behind these values is PubChem BioAssay AID206 (DTP/NCI, 2004).
